Some of the results follow.
What was measured:
Assay in all cases: log2 fold change, soluble protein after heating vs DMSO (PISA); higher = thermal stabilisation; K562 cells, 10 uM, 30 min; active = over 0.2 and 3.5 SD of the protein, either way, in both replicates (recomputed)
[1] = compound: CC[C@@H]1C(=O)N(C)c2cnc(Nc3ccc(C(=O)NC4CCN(C)CC4)cc3OC)nc2N1C1CCCC1
Procedure, shortened: (§1)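 Quantification of soluble protein used TMTpro 16plex LC-MS/MS, with channel sums equalised. Samples were the supernatant after 21,000xg for 90 min of pooled aliquots from K562 cells (2×10^6 cells/mL) treated with 10 μM compound for 30 min, heated for 3 min over 48°C-58°C, and extracted in PBS with 0.5% NP-40 at 4°C. Values, from duplicates, describe thermal stability against control samples on a log2 fold-change scale.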

Sequences of proteins named here, by UniProt entry; tags and fusion partners are left off. A change or cut given only in a name is not applied to a line headed by its entry.
UniProt Q9NUQ2: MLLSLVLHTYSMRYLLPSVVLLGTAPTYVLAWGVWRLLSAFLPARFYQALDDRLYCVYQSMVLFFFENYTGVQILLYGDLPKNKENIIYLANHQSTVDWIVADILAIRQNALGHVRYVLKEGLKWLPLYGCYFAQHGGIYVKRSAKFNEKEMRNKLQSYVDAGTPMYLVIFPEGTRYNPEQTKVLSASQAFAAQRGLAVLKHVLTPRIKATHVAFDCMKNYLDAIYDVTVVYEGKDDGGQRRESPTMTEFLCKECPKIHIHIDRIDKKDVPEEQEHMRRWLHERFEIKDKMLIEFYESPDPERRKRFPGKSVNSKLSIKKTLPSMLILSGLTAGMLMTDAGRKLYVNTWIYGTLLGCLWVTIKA
UniProt P35612: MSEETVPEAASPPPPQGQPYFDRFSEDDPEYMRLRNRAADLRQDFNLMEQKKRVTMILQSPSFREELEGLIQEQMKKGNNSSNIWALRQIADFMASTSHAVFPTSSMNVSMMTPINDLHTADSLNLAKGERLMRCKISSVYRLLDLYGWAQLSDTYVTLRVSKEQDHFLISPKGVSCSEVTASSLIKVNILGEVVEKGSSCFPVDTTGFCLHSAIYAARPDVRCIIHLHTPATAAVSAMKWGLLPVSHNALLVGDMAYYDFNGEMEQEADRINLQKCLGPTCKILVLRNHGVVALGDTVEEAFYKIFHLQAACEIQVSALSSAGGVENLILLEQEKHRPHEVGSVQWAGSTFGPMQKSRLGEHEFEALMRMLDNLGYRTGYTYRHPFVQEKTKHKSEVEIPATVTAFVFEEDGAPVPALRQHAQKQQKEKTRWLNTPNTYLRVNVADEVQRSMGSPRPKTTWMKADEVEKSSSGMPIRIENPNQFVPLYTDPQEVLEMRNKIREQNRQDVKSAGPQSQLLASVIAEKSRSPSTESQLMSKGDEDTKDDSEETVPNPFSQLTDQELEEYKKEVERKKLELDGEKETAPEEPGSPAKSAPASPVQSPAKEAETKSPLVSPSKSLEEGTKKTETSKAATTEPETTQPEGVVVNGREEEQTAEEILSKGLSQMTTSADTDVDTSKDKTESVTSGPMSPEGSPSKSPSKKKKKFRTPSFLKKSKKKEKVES
UniProt Q96F25: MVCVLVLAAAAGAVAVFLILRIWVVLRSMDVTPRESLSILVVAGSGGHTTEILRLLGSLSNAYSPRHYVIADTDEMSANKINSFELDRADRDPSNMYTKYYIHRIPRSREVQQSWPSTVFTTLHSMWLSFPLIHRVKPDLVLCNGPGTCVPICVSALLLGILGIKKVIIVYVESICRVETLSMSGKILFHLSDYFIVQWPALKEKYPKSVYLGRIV
UniProt Q9UKV5, whole entry, looked up: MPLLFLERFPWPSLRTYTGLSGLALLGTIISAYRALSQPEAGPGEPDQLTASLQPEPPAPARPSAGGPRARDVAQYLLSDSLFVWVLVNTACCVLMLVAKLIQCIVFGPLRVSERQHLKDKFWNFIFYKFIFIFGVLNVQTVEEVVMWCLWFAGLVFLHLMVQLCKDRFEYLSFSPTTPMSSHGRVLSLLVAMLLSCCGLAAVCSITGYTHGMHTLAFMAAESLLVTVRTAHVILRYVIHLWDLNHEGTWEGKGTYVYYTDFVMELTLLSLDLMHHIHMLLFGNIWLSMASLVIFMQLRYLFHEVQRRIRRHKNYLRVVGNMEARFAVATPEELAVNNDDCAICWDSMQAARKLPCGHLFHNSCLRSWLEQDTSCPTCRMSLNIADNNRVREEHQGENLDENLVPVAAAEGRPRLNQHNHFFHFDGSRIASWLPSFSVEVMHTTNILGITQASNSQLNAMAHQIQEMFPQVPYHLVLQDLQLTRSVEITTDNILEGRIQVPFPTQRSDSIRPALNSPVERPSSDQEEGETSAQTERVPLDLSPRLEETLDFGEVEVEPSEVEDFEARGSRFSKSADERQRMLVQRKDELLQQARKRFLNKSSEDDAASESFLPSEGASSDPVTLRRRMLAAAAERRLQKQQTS
UniProt P20933: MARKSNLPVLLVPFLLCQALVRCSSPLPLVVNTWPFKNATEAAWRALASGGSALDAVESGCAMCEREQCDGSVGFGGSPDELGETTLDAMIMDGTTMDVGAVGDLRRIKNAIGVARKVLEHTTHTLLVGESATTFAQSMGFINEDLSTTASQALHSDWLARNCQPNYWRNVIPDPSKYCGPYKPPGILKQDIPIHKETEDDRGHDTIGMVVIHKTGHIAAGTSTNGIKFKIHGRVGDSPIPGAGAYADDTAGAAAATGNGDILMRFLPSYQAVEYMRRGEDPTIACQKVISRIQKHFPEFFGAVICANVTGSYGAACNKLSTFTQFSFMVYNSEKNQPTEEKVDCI
UniProt Q9H8T0: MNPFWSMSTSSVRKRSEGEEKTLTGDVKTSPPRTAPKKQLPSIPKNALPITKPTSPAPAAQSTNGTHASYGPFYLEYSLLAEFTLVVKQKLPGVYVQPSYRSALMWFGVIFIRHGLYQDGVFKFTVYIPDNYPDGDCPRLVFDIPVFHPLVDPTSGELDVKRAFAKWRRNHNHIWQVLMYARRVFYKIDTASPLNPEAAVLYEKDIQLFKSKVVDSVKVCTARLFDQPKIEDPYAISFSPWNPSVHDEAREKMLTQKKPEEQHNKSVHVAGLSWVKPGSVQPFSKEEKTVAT
UniProt P02760: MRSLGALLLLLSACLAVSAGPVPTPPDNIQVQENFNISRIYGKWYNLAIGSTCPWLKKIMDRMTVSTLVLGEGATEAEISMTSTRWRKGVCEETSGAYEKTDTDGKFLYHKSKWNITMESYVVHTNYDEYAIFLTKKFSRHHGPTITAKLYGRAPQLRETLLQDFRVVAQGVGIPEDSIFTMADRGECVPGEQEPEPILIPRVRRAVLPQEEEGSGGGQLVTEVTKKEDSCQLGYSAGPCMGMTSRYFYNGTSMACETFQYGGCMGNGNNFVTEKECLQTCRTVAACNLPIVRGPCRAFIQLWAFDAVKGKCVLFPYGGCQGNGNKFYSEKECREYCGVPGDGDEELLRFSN
UniProt O75342: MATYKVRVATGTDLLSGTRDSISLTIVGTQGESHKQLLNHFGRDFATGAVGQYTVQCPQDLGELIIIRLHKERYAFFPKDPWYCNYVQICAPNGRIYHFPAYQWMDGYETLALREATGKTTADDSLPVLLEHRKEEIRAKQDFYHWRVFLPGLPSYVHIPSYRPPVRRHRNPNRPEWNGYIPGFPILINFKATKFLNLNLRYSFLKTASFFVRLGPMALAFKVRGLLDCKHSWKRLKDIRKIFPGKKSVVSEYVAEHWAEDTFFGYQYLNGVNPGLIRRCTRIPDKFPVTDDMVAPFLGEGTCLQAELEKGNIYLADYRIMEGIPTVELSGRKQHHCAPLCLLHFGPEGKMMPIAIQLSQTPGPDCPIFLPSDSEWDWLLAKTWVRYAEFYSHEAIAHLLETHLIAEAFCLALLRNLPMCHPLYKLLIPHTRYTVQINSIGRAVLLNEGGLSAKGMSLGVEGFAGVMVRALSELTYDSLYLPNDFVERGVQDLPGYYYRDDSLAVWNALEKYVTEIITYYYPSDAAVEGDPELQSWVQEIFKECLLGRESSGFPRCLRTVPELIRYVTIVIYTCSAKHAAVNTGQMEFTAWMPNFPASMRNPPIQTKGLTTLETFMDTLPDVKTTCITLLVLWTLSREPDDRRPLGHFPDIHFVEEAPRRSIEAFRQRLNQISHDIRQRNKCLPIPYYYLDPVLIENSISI
UniProt Q9Y3D8, whole entry, looked up: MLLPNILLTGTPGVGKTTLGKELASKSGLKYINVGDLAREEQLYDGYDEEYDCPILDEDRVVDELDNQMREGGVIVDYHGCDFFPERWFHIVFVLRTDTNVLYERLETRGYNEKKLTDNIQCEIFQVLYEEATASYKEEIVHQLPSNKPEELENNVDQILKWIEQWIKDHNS
UniProt Q9BV10: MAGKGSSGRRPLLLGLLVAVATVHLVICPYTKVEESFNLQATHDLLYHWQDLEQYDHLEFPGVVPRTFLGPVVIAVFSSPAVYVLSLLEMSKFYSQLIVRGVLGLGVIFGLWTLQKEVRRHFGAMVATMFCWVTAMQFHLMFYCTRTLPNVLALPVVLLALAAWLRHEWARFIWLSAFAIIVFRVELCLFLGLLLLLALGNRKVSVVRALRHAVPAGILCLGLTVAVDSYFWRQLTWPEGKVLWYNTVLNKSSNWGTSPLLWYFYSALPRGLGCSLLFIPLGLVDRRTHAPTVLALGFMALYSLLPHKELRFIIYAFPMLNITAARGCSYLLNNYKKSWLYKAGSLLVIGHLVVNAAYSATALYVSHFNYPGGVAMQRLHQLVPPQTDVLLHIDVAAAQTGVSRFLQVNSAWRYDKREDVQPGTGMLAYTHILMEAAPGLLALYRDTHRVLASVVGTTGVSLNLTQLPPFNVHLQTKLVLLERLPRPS
UniProt Q8WV93: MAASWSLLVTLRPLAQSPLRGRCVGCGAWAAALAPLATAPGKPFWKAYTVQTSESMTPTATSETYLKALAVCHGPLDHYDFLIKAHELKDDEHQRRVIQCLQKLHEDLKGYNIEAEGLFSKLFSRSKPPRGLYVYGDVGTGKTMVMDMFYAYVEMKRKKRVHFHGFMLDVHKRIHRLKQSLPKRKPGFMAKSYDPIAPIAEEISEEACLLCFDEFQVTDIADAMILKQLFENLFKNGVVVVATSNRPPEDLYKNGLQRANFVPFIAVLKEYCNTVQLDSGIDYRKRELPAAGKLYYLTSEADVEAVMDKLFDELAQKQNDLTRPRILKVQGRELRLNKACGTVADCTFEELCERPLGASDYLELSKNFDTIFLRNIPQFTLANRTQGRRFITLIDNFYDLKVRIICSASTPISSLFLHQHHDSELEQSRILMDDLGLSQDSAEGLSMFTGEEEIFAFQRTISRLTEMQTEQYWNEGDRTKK
UniProt Q6RW13: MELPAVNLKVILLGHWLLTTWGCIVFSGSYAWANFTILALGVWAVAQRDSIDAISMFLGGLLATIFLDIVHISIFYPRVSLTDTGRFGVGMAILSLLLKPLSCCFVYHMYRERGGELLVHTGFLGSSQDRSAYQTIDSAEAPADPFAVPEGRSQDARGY
UniProt Q6ZN18: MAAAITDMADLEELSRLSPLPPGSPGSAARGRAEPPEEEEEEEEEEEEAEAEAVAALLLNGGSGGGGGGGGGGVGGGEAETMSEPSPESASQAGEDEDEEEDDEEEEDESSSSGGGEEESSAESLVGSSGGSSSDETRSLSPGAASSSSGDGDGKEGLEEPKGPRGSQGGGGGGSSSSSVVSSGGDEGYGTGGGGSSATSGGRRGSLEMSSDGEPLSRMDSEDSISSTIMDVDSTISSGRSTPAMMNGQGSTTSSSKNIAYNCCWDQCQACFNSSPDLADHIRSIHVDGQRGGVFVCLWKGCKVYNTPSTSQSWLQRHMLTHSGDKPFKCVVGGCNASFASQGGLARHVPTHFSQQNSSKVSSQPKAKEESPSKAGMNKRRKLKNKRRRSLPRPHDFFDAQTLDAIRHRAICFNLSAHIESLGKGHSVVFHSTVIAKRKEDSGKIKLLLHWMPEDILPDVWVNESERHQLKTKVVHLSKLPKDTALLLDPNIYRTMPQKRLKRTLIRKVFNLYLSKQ
UniProt Q3MIX3: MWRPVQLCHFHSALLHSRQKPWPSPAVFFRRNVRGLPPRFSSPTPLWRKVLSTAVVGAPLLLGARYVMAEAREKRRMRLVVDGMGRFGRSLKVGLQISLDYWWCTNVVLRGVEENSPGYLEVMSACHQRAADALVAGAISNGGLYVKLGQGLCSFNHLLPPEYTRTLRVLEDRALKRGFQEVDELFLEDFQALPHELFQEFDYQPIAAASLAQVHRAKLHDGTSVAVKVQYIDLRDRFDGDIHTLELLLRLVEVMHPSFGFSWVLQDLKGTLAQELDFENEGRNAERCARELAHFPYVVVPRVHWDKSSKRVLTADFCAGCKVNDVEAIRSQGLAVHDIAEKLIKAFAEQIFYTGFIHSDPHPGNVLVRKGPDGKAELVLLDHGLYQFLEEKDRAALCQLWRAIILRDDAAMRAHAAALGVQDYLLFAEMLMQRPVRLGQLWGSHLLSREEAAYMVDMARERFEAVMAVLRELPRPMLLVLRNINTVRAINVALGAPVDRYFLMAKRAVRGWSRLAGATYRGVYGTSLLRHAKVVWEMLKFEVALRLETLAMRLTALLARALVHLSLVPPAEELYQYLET
UniProt Q9Y303: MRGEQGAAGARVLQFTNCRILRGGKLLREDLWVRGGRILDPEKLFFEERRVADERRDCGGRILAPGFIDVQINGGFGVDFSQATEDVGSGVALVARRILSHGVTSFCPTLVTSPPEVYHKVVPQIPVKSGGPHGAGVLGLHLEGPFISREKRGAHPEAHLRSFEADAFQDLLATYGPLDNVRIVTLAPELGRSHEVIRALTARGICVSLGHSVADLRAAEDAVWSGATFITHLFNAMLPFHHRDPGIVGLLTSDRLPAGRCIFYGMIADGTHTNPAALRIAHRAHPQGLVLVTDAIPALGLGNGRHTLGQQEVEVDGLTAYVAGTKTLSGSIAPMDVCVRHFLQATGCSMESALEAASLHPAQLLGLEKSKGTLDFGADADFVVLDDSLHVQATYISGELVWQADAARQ

[2] = compound: CC[C@@H]1C(=O)N(C)c2cnc(Nc3ccc(C(=O)N[C@H]4CC[C@H](N5CCN(CC6CC6)CC5)CC4)cc3OC)nc2N1C(C)C [volasertib]
Procedure, shortened: as §1

[3] = compound: CC[C@H](C)N1C=C(C2=C(C=C(C=C21)C3=CN=C(C=C3)N4CCNCC4)C(=O)NCC5=C(C=C(NC5=O)C)C)C
Procedure, shortened: as §1

[4] = compound: CC[C@H](C)[C@@H](C(=O)N[C@@H]([C@@H](C)O)C(=O)N[C@@H](CC(C)C)C(=O)[C@]1(CO1)C)NC(=O)[C@H]([C@@H](C)CC)N(C)C(=O)C [epoxomicin]
Procedure, shortened: as §1

[5] = compound: CCn1cc(-c2ccnc3[nH]c(-c4cccc(CN(C)C)c4)cc23)c(-c2ccc(NC(=O)N(C)C)cc2)n1
Procedure, shortened: as §1

[6] = compound: CN(C)CC(=O)Nc1ccc2[nH]c(=O)c3ccccc3c2c1
Procedure, shortened: as §1

[7] = compound: CN1C2=C(C3=C1C(=O)N(N=C3)CC4=CC(=CC=C4)N)SC(=C2)S(=O)C
Procedure, shortened: as §1

[8] = compound: CN1CCC(CNc2ccc3ncc(-c4cccc(OC(F)(F)F)c4)n3n2)CC1
Procedure, shortened: as §1

[9] = compound: CCn1c(C(=O)N(C2CC2)C2CC2)cc2c3c(ncn3C)c(Nc3cc(C)n(C)n3)nc21
Procedure, shortened: as §1

[10] = compound: CN(CCOC1=CC=C(C=C1)C[C@H]2C(=O)NC(=O)S2)C3=CC=CC=N3 (racemic) [rosiglitazone]
Procedure, shortened: as §1

| Target | log2 fold change [1] | log2 fold change [2] | log2 fold change [3] | log2 fold change [4] | log2 fold change [5] | log2 fold change [6] | log2 fold change [7] | log2 fold change [8] | log2 fold change [9] | log2 fold change [10] |
| --- | --- | --- | --- | --- | --- | --- | --- | --- | --- | --- |
| AGPAT5 (UniProt Q9NUQ2) | inactive: -0.169 | active: -0.281 | inactive: -0.068 | inactive: 0.007 | inactive: -0.13 | inactive: 0 | inactive: -0.067 | inactive: -0.25 |  |  |
| AKT1 (UniProt P31749) | inactive: 0 | inactive: -0.503 | inactive: 0.068 | inactive: 0.158 | inactive: -0.08 | inactive: 0.133 | inactive: 0.107 | inactive: 0.222 |  |  |
| ADD2 (UniProt P35612) | inactive: 0.037 | inactive: 0.031 | inactive: -0.044 | inactive: 0.006 | inactive: -0.043 | inactive: -0.038 | inactive: -0.02 | inactive: 0.008 |  |  |
| ALG14 (UniProt Q96F25) | inactive: 0.2 | inactive: 0.11 | inactive: -0.077 | inactive: 0.382 | inactive: -0.215 | inactive: 0.062 | inactive: -0.124 | inactive: 0.443 |  |  |
| AMFR (UniProt Q9UKV5) | inactive: -0.205 | inactive: -0.215 | inactive: 0.044 | inactive: 0.049 | inactive: 0 | inactive: -0.007 | inactive: 0.01 | inactive: -0.055 |  |  |
| AIFM2 (UniProt Q9BRQ8) | inactive: 0.002 | inactive: -0.035 | inactive: -0.058 | inactive: -0.035 | inactive: -0.017 | inactive: 0.003 | inactive: -0.069 | inactive: 0.068 |  |  |
| ANAPC15 isoform 2 (UniProt P60006) | inactive: 0.2 | inactive: 0.093 |  |  |  | inactive: -0.092 |  |  | inactive: 0.321 |  |
| AKAP9 isoform 6 (UniProt Q99996) | inactive: 0.065 |  | inactive: -0.038 | inactive: 0.291 |  |  |  |  |  |  |
| AGA (UniProt P20933) | inactive: 0.145 | inactive: 0.178 |  |  | inactive: 0.1 |  |  | inactive: 0.073 | inactive: -0.052 | inactive: 0.066 |
| ADH5 (UniProt P11766) | inactive: 0.01 | inactive: 0.02 | inactive: -0.024 | inactive: -0.016 | inactive: -0.001 | inactive: -0.01 | inactive: -0.052 | inactive: -0.02 |  |  |
| ALAS1 (UniProt P13196) | inactive: 0.131 | inactive: 0.006 |  | inactive: 0.006 | inactive: 0.034 |  |  | inactive: -0.04 | inactive: -0.136 | inactive: 0.028 |
| AFDN isoform 1 (UniProt P55196) | inactive: -0.019 |  |  | inactive: 0.064 | inactive: -0.075 | inactive: -0.069 | inactive: 0.111 | inactive: 0.062 |  |  |
| AKTIP isoform 2 (UniProt Q9H8T0) | inactive: -0.084 | inactive: -0.288 |  | inactive: 0.02 |  |  |  |  |  | inactive: -0.374 |
| ALMS1 (UniProt Q8TCU4) | inactive: -0.044 |  | inactive: 0.064 |  | inactive: 0.055 |  |  | inactive: -0.066 | inactive: -0.143 | inactive: 0.13 |
| ALDOA (UniProt P04075) | inactive: 0.075 | inactive: 0.128 | inactive: -0.004 |  | inactive: 0.023 | inactive: -0.044 | inactive: -0.103 | inactive: -0.008 | inactive: -0.146 | inactive: 0.017 |
| ADGRV1 (UniProt Q8WXG9) | inactive: 0.269 |  | inactive: -0.132 | inactive: -0.075 | inactive: 0.083 |  |  | inactive: -0.077 |  | inactive: 0.042 |
| AMBP (UniProt P02760) | inactive: 0 | inactive: 0.072 |  |  | inactive: -0.024 | inactive: 0.001 | inactive: 0.242 | inactive: 0.262 | inactive: -0.225 | inactive: -0.01 |
| ALOX12B (UniProt O75342) | inactive: 0.107 | inactive: 0.08 |  |  |  | inactive: 0.465 | inactive: 0.484 |  |  | inactive: -0.139 |
| AK6 (UniProt Q9Y3D8) | inactive: -0.304 | active: -0.438 | inactive: -0.001 | inactive: 0.08 | inactive: -0.007 | inactive: 0.148 | inactive: 0.027 | inactive: -0.322 |  |  |
| ADGB (UniProt Q8N7X0) | inactive: -0.281 | inactive: 0.042 |  | inactive: -0.025 | inactive: 0.111 |  |  | inactive: -0.545 |  |  |
| ADD3 isoform 2 (UniProt Q9UEY8) | inactive: 0.021 | inactive: -0.037 |  | inactive: -0.022 | inactive: 0.066 | inactive: 0.036 | inactive: -0.093 | inactive: -0.128 |  |  |
| ALG12 (UniProt Q9BV10) | inactive: 0.119 | inactive: -0.02 |  | inactive: -0.045 |  | inactive: 0.066 | inactive: -0.043 |  | inactive: 0 | inactive: 0.016 |
| AFG1L (UniProt Q8WV93) | inactive: 0.047 | inactive: -0.223 | inactive: 0.207 | inactive: 0.035 |  | inactive: 0.063 | inactive: -0.122 |  |  |  |
| AGTRAP isoform 2 (UniProt Q6RW13) | inactive: -0.029 |  |  |  | inactive: 0.042 |  |  | inactive: 0.025 | inactive: 0.023 |  |
| AEBP2 (UniProt Q6ZN18) | inactive: 0.006 |  |  | inactive: 0.071 |  |  |  |  | inactive: -0.015 | inactive: 0.083 |
| AGPAT4 (UniProt Q9NRZ5) | inactive: -0.019 | inactive: -0.102 | inactive: -0.086 |  | inactive: 0.01 |  | inactive: -0.125 | inactive: -0.062 | inactive: 0.076 | inactive: -0.023 |
| ADCK5 (UniProt Q3MIX3) | inactive: 0.025 |  |  | inactive: 0.072 |  | inactive: -0.144 |  |  | inactive: 0.077 |  |
| AMDHD2 (UniProt Q9Y303) | inactive: -0.174 | inactive: 0.08 |  |  | inactive: -0.118 | inactive: 0.064 | inactive: -0.156 | inactive: 0.057 | inactive: 0.169 |  |

Reprinted at random: 2 entries already listed.

| Target | log2 fold change [1] | log2 fold change [2] | log2 fold change [3] | log2 fold change [4] | log2 fold change [5] | log2 fold change [6] | log2 fold change [7] | log2 fold change [8] | log2 fold change [9] | log2 fold change [10] |
| --- | --- | --- | --- | --- | --- | --- | --- | --- | --- | --- |
| ALAS1 (UniProt P13196) | inactive: 0.131 | inactive: 0.006 |  | inactive: 0.006 | inactive: 0.034 |  |  | inactive: -0.04 | inactive: -0.136 | inactive: 0.028 |
| AMFR (UniProt Q9UKV5) | inactive: -0.205 | inactive: -0.215 | inactive: 0.044 | inactive: 0.049 | inactive: 0 | inactive: -0.007 | inactive: 0.01 | inactive: -0.055 |  |  |

— the supplement of paper PMC10849652
